# Hit rate of the full screen: of about 360,000 compounds, about 9,100 (2.5%) were called active. The shares of active, inactive and inconclusive entries below differ from those in the screen. Rule as the data show it: active = max response below about -50%; inconclusive = no clear call, values can overlap the other calls; inactive = above that.
# The chains behind the UniProt entries cited, without tags or fusion partners.
# UniProt P35462, whole entry, looked up: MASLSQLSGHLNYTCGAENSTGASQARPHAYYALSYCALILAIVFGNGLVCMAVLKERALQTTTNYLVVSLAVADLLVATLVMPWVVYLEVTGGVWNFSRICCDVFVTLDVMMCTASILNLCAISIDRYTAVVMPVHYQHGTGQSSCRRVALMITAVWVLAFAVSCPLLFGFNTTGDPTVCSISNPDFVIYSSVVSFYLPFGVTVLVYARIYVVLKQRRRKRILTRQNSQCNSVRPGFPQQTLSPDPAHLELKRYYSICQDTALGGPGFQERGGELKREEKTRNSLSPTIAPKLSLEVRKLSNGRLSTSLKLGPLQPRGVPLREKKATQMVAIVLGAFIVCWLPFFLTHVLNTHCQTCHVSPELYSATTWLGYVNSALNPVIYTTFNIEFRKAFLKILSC
# Target: D(3) dopamine receptor (Homo sapiens) (UniProt P35462)
# Assay: qHTS of D3 Dopamine Receptor Antagonist: qHTS
# Settings: D3R cells, DiscoveRx beta-arrestin luminescence, antagonist mode; active compounds read low
# Procedure, shortened: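 Cells plated overnight at 1500 cells/well, then exposed to library compounds with dopamine controls for 90 minutes at 37 degrees C. DiscoveRx reagent added for 30–60 minutes at room temperature; luminescence read, quantitative HTS format.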
# % is scaled to controls: 0 for no effect and ±100 for the full control effect.
row,SMILES,"max response, negative = inhibition"
1,CN(C)CCCOC(=O)c1ccc(Cl)cc1Cl,inconclusive: -34.5%
2,CCOC(=O)[C@H]1[C@H]2COc3ccc(Cl)cc3[C@@H]2N2C(=O)c3cc(C)ccc3NC(=O)[C@@]12C,inconclusive: -47.2%
3,O=C(OCCN1CCCC1)C1(c2ccccc2)CCCC1,inconclusive: -32.6%
4,O=C(C1CCCN(Cc2cccc(F)c2)C1)N1CCCCC1 (configuration not stated),active: -73.3%
5,CC(=O)c1cccc(NC(=O)C(C)OC(=O)/C=C/c2cccs2)c1 (configuration not stated),inactive: -4.95%
6,COC(=O)[C@]1(Cc2ccccc2)N[C@H](c2ccc(-c3cccc(Cl)c3)cc2)[C@@H]2C(=O)N(C)C(=O)[C@@H]21,inconclusive: -49.5%
7,OCCNc1nc(N2CCN(Cc3ccccc3)CC2)nc2ccccc12,inconclusive: -37.8%
8,Cc1ccc(Cl)c(OCC(=O)NC2CCN(Cc3ccccc3)CC2)c1,inconclusive: -31.6%
9,O=C(O)c1ccccc1NC(c1ccccc1)c1ccc2cccnc2c1O (configuration not stated),active: -95.3%
10,COc1cc(/C=C(\C#N)c2nc3ccc(C)cc3[nH]2)c([N+](=O)[O-])cc1OC,active: -52.2%
11,O=C(Nc1ccc(NC(=O)c2ccc(Cl)cc2Cl)cc1)c1cccs1,inconclusive: -41.9%
12,CCCC(c1nnnn1C1CCCCC1)N1CCN(c2ncccn2)CC1 (configuration not stated),inconclusive: -43.1%
13,CC1=C(C(=O)OC(C)C)C(c2ccc(Br)s2)NC(=O)N1C (configuration not stated),inconclusive: -30.4%
14,NS(=O)(=O)c1ccc(NC(=S)N2CCN(c3ccccc3Cl)CC2)cc1,inactive: 0.411%
15,CCC(C)NC(=O)CCCCCn1c(=O)[nH]c2cc(OC)c(OC)cc2c1=O (configuration not stated),inactive: -0.301%
16,Cc1cc2nc(N=C(N)N)nc(C)c2cc1C,inactive: -2.61%
17,CN(C)C(CNC(=O)c1coc2ccccc2c1=O)c1ccccc1 (configuration not stated),inactive: -6.31%
18,CCCc1c(C)nn(C(=O)/C(C#N)=N/Nc2ccccc2[N+](=O)[O-])c1C,inconclusive: -32.6%
19,CN(CCOc1ccccc1)CC(O)COCc1ccccc1F (configuration not stated),inconclusive: -46%
20,CCCOc1cccc(-c2cc(C(=O)N/N=C/c3ccccn3)c3ccccc3n2)c1,inconclusive: -33.5%
21,CCCCC(c1nc2ccccc2[nH]1)n1c(-c2ccccc2)nc2ccccc21 (configuration not stated),inactive: 24.3%
22,C#CCOCCOCCOCCNc1nc(N2CCN(C(=O)CCCCCCCCCCNC(=O)[C@H]([C@@H](C)CC)n3cc(CCCCN=C(N)N)nn3)CC2)nc(N2CCN(C(=O)CCCCCCCCCCNC(=O)[C@H](CO)n3cc(CCCSC)nn3)CC2)n1,active: -60.9%

# As a short view, 21 of the compounds above.
row,SMILES,"max response, negative = inhibition"
2,CCOC(=O)[C@H]1[C@H]2COc3ccc(Cl)cc3[C@@H]2N2C(=O)c3cc(C)ccc3NC(=O)[C@@]12C,inconclusive: -47.2%
3,O=C(OCCN1CCCC1)C1(c2ccccc2)CCCC1,inconclusive: -32.6%
4,O=C(C1CCCN(Cc2cccc(F)c2)C1)N1CCCCC1 (configuration not stated),active: -73.3%
5,CC(=O)c1cccc(NC(=O)C(C)OC(=O)/C=C/c2cccs2)c1 (configuration not stated),inactive: -4.95%
6,COC(=O)[C@]1(Cc2ccccc2)N[C@H](c2ccc(-c3cccc(Cl)c3)cc2)[C@@H]2C(=O)N(C)C(=O)[C@@H]21,inconclusive: -49.5%
7,OCCNc1nc(N2CCN(Cc3ccccc3)CC2)nc2ccccc12,inconclusive: -37.8%
8,Cc1ccc(Cl)c(OCC(=O)NC2CCN(Cc3ccccc3)CC2)c1,inconclusive: -31.6%
9,O=C(O)c1ccccc1NC(c1ccccc1)c1ccc2cccnc2c1O (configuration not stated),active: -95.3%
10,COc1cc(/C=C(\C#N)c2nc3ccc(C)cc3[nH]2)c([N+](=O)[O-])cc1OC,active: -52.2%
11,O=C(Nc1ccc(NC(=O)c2ccc(Cl)cc2Cl)cc1)c1cccs1,inconclusive: -41.9%
12,CCCC(c1nnnn1C1CCCCC1)N1CCN(c2ncccn2)CC1 (configuration not stated),inconclusive: -43.1%
13,CC1=C(C(=O)OC(C)C)C(c2ccc(Br)s2)NC(=O)N1C (configuration not stated),inconclusive: -30.4%
14,NS(=O)(=O)c1ccc(NC(=S)N2CCN(c3ccccc3Cl)CC2)cc1,inactive: 0.411%
15,CCC(C)NC(=O)CCCCCn1c(=O)[nH]c2cc(OC)c(OC)cc2c1=O (configuration not stated),inactive: -0.301%
16,Cc1cc2nc(N=C(N)N)nc(C)c2cc1C,inactive: -2.61%
17,CN(C)C(CNC(=O)c1coc2ccccc2c1=O)c1ccccc1 (configuration not stated),inactive: -6.31%
18,CCCc1c(C)nn(C(=O)/C(C#N)=N/Nc2ccccc2[N+](=O)[O-])c1C,inconclusive: -32.6%
19,CN(CCOc1ccccc1)CC(O)COCc1ccccc1F (configuration not stated),inconclusive: -46%
20,CCCOc1cccc(-c2cc(C(=O)N/N=C/c3ccccn3)c3ccccc3n2)c1,inconclusive: -33.5%
21,CCCCC(c1nc2ccccc2[nH]1)n1c(-c2ccccc2)nc2ccccc21 (configuration not stated),inactive: 24.3%
22,C#CCOCCOCCOCCNc1nc(N2CCN(C(=O)CCCCCCCCCCNC(=O)[C@H]([C@@H](C)CC)n3cc(CCCCN=C(N)N)nn3)CC2)nc(N2CCN(C(=O)CCCCCCCCCCNC(=O)[C@H](CO)n3cc(CCCSC)nn3)CC2)n1,active: -60.9%

# Next entries.

row,SMILES,"max response, negative = inhibition"
1,COc1ccc(CN(C(=S)Nc2ccccc2)C2CC(=O)N(c3ccccc3)C2=O)cc1 (configuration not stated),inactive: 0.605%
2,COc1ccc(CC(=O)NC(=S)NNC(=O)COc2c(C)cccc2C)cc1,inconclusive: -40.3%
3,CCN1CCN(CCOc2ccc(Br)cc2C)CC1,inconclusive: -37.1%
4,CCCCNCCCCOc1ccccc1,inconclusive: -41.2%
5,CCOC(=O)N1CCN(C(=O)CSc2nnc(-c3ccccc3OC)o2)CC1,inconclusive: -40.2%
6,CCN1CCN(c2ccc(NC(=O)COc3ccccc3Cl)cc2)CC1,active: -63.9%
7,COc1ccc([C@H]2CC(=O)C=C(/C=C/c3ccc(Cl)cc3)C2)cc1,active: -56.6%
8,COc1ccc(CNC(=O)Cc2csc(Nc3nc(=S)[nH]c4ccccc34)n2)cc1,inconclusive: -42%
9,O=C(NCCS(=O)(=O)N1CCN(c2ccc(F)cc2)CC1)C12CC3CC(CC(C3)C1)C2,inactive: 13.3%
10,CC1CCN(C2=NC(=O)/C(=C/c3cccc(O)c3)S2)CC1,active: -85%
11,CC(C)N1CCc2c(sc(NC(=O)Cc3ccccc3)c2C(N)=O)C1,inconclusive: -43.2%
12,CCOC(=O)c1ccccc1NC(=O)N1CCn2c(C)ccc2C1CC (configuration not stated),inconclusive: -35.5%
13,COc1ccc(C)cc1S(=O)(=O)Nc1ccc(F)cc1,inactive: -25.7%
14,CN(Cc1cnccn1)Cc1ccccc1OCC(O)CN1CCc2ccccc2C1 (configuration not stated),active: -83.2%
15,O=C1CCC(C(=O)N2CCC(O)(c3ccccc3)CC2)CN1CCc1ccccc1 (configuration not stated),inconclusive: -35.2%
16,CCC1(C)Cc2c(sc3c2c(=O)n(C)c2nnc(SCc4ccccc4)n32)CO1 (configuration not stated),inconclusive: -34%
17,O=c1/c(=C\c2ccc(O)cc2)sc2n1C(c1ccccc1)C(c1ccccc1)=NN=2 (configuration not stated),active: -59.3%
18,CCNc1nc(NCC)nc(N/N=C/c2ccccc2)n1,inconclusive: -31.2%
19,OCCn1c(-c2ccc3c(c2)OCO3)csc1=Nc1ccccc1,active: -70.3%
20,CC(=O)OC1C2CCC1C([N+]1(C)CCCCC1)CC2 (configuration not stated),inactive: 10.4%
21,COc1ccc(S(=O)(=O)N(CCCN2CCOCC2)Cc2ccc(OC)c(OC)c2)cc1,active: -69.4%
22,COc1cc(/C=C(\C#N)C(=O)N2CCOCC2)ccc1OCc1ccccc1,inactive: -14.1%

row,SMILES,"max response, negative = inhibition"
1,CCN(CC)CCCn1c(=S)[nH]c2ncccc2c1=O,active: -52.9%
2,O=C(N/N=C/c1ccccn1)c1[nH]c2ccc([N+](=O)[O-])cc2c1-c1ccccc1,active: -60%
3,COc1ccc(C=O)cc1COc1ccc(Cl)cc1[N+](=O)[O-],inconclusive: -33.3%
4,Cc1cc(C)nc(-n2nc(C)c(Sc3ccc(F)cc3)c2N)n1,inactive: 6.03%
5,CN1C(C(=O)NCC2CC2)CC2Cn3c(nc4ccccc43)C21 (configuration not stated),inconclusive: -32.2%
6,CCNC(=O)C1(C)CCCN(C(=O)c2nc(C)oc2C)C1 (configuration not stated),inconclusive: -36.8%
7,O=c1cc(N2CCCCC2)c(-c2ccccc2)nn1Cc1c(Cl)cccc1Cl,active: -68.6%
8,COC(=O)c1cc(S(=O)(=O)NCCN2CCN(c3ccccc3F)CC2)c[nH]1,inconclusive: -49.9%
9,Cc1cnc(C(=O)Nc2nnc(C(C)C)s2)cn1,inconclusive: -36.9%
10,N#Cc1cccc(NC(=O)CCC2CCCC2)c1,inconclusive: -34.1%
11,c1ccc(-c2ccc(C3=Nn4c(nnc4-c4cccs4)SC3)cc2)cc1,inconclusive: -33.4%
12,COCCCNC(=O)c1ccc(CN2CCc3ccccc3C2)cc1,inconclusive: -39.8%
13,N=C1C(c2nc3ccccc3s2)=C(O)CN1Cc1ccccc1,inconclusive: -31.7%
14,O=C(Cn1cnc([N+](=O)[O-])c1)NCCc1ccccc1,inconclusive: -41.9%
15,COc1ccc(N2CCN(C(=O)c3ccc4c(c3)OCO4)CC2)cc1,inconclusive: -43.7%
16,O=C(OCCN1CCCCC1)c1cccc(F)c1,inconclusive: -41.4%
17,COC(=O)[C@@]12CCCCN1[C@H](c1ccc(-c3ccc(C(C)=O)cc3)cc1)[C@@H]1C(=O)N(C)C(=O)[C@@H]12,inconclusive: -36.8%
18,FC(F)(F)C(F)(F)C(F)(F)c1nnc2ccc(N3CCOCC3)nn12,inconclusive: -31.6%
19,O=C1CC(=O)Nc2cc(S(=O)(=O)N3CCOc4ccc(Cl)cc43)ccc2N1,inconclusive: -35%
20,O=C(CCN1C(=O)C2C3C=CC(C3)C2C1=O)N1CCN(c2ccccc2Cl)CC1 (configuration not stated),active: -79.9%
21,CCOc1ccc(C(=O)Nc2ccc(N3CCN(C)CC3)cc2)cc1,inactive: -3.67%
22,CCOC(=O)C1(CCOc2ccccc2)CCN(CC=C(C)C)CC1,inconclusive: -32.5%

row,SMILES,"max response, negative = inhibition"
1,CCCN1CCC(NC(=O)Nc2ccc(OC)c(OC)c2)CC1,inconclusive: -46.7%
2,COc1ccc(NC(=O)COC(=O)CCCc2c[nH]c3ccccc23)cc1,inconclusive: -35.9%
3,CCN(CC)S(=O)(=O)c1cccc(C(=O)Oc2cccnc2)c1,active: -53.1%
4,CN1CCN(C(CNS(=O)(=O)c2ccc(Br)cc2)c2ccc3c(c2)OCO3)CC1 (configuration not stated),inactive: 5.47%
5,CCCCCCOC(=O)c1ccc(NC(=O)c2cc(OC)c(OC)c(OC)c2Br)cc1,inconclusive: -35.9%
6,Nc1nc(-c2ccccc2)[nH]c(=O)c1N,inactive: -15.8%
7,O=C(O)c1ccc2c(=O)n3c(nc2c1)/C(=C/c1ccc(C(F)(F)F)cc1)CC3,inactive: -5.08%
8,Cc1cc(N2CCN(C)CC2)nc2ccc(NC(=S)N3CCCCC3)cc12,inconclusive: -47.1%
9,CCN1CCN(c2cc(C)c3cc(NC(=S)NCCCN4CCc5ccccc5C4)ccc3n2)CC1,active: -87.2%
10,Cc1[nH]n(-c2ncc(-c3ccccc3)s2)c(=O)c1C(c1ccc(Br)cc1)C(C#N)C#N (configuration not stated),inconclusive: -32.9%
11,OC(CSc1ccccc1)CN1CCN(c2ccccc2)CC1 (configuration not stated),inconclusive: -33%
12,COc1ccc(CN2CCN(c3ccccn3)CC2)cc1OCc1ccccc1,active: -69.3%
13,COc1ccc(-c2c(-c3ccccc3)c(C(=O)C(=O)NCCCN(C)C)n3ccc4cc(OC)c(OC)cc4c23)cc1OC,inconclusive: -33.2%
14,Clc1cccc(CN2CCN(Cc3ccco3)CC2)c1,active: -65.7%
15,COc1ccc(Cl)cc1NC(=O)c1noc(C)c1[N+](=O)[O-],inactive: -13.6%
16,COc1cccc(-c2nc(CS(=O)CC(=O)NCCc3ccc(C)cc3)c(C)o2)c1 (configuration not stated),inactive: -23.2%
17,O=C(NC1CC1)c1ccc(-c2cnc3cccnn23)cc1,inconclusive: -49.4%
18,CCN(CC)S(=O)(=O)c1cc(C(=O)Nc2ccncc2)ccc1Cl,inactive: -14.4%
19,CCCCNC(=O)C(NC(=O)Cc1cc(OC)cc(OC)c1)C(=O)c1ccccc1 (configuration not stated),inactive: 0.655%
20,Cc1nc2c(OCc3ccc(C(F)(F)F)cc3)cccn2c1N(C)CC1CC1,active: -98.6%
21,Cc1cc2nc(-c3cccc(Br)c3)c(Cc3ccccc3)n2c(C)c1Br,inconclusive: -42.3%

# — PubChem BioAssay AID652054 (National Center for Advancing Translational Sciences (NCATS), 2013)
